Consider five compounds from PubChem BioAssay AID330 (DTP/NCI, 2004).

The list does not hold the whole screen: it gathers tests that were run many times, whatever their T/C, doses with no T/C, and many T/C values between a quarter and a half above the control. Further doses and runs are listed elsewhere. T/C is the treated group as % of the vehicle group. Some doses have a count of surviving animals in place of a T/C: the source holds a T/C of zero for them, seemingly a mark for toxic or unscored doses. Some doses without a T/C left all or most animals alive at the check, yet need not have been tolerated: the source hardly ever lists a survival T/C far under the control, and the zero likely stands for such cases as well. Survivors were counted at the toxicity check, usually on the fifth day, unless a day is given; later deaths do not show. Schedule codes are those of the source, read here as Q, the interval in days (D) or hours (H), X, the number of doses. Where survival is the endpoint, the PubChem record calls one and a half times the control and up active, and a quarter to a half above the control has no call in these data; cut-offs in other NCI protocols can differ.

The subject of this test is P388 leukemia ip, CD2F1 mice, survival T/C. Nature of the test: NCI In Vivo Anticancer Drug Screen. Data for tumor model P388 Leukemia (intraperitoneal) in CD2F1 (CDF1) mice. The settings on record: T/C endpoint: median survival time, higher T/C = longer survival.

On to `O=[N+]([O-])c1ccc(SCc2ccccc2)c2nonc12`, for which, for the setting “dose: 12.5 mg/kg/injection, schedule: Q01DX009 (ip), vehicle: saline”, the survivor count is 6 of 6. The T/C (dose: 100.0 mg/kg/injection, schedule: Q01DX009 (ip), vehicle: suspension in saline) is 131 % of control.

Regarding `C=C(C)CN1C(=O)C(C)S/C1=N/N=C1/SCC(=O)N1C` (centres undefined), the survivor count (dose: 250.0 mg/kg/injection, schedule: Q01DX009 (ip), vehicle: saline) is 6 of 6.

In the case of `CN1c2cc3ccccc3cc2N(C)c2cc3ccccc3cc21`, the survivor count (dose: 100.0 mg/kg/injection, schedule: Q01DX005 (ip), vehicle: Klucel (hydroxypropylcellulose) (HPC)) is 6 of 6.

For the compound `OC1(C#Cc2ccccc2)c2ccccc2C(O)(C#Cc2ccccc2)c2c(C#Cc3ccccc3)cccc21` (centres undefined), the survivor count is, setting by setting: (dose: 50.0 mg/kg/injection, schedule: Q01DX009 (ip), vehicle: saline with Tween-80) 6 of 6; (dose: 100.0 mg/kg/injection, schedule: Q01DX009 (ip), vehicle: saline with Tween-80) 6 of 6.

With `Nc1nc(-c2ccccc2)cc2ccccc12`, the survivor count was 0 of 6 (dose: 100.0 mg/kg/injection, schedule: Q04DX003 (ip), vehicle: saline with Tween-80); 0 of 6 (dose: 200.0 mg/kg/injection, schedule: Q04DX003 (ip), vehicle: saline with Tween-80); 0 of 6 (dose: 400.0 mg/kg/injection, schedule: Q04DX003 (ip), vehicle: saline with Tween-80).
